Measurements reported in patent US20220364990A1, “ANALYSIS OF OSCILLATORY FLUORESCENCE FROM BIOLOGICAL CELLS” (MOLECULAR DEVICES, LLC, priority 2019, published 2022).

Tested on: human iPSC-derived cardiomyocytes
Assay: Calcium oscillation assay in iPSC-derived cardiomyocytes (FLIPR Penta, EarlyTox Cardiotoxicity Kit, Peak Pro 2 analysis)
Assay type: cell-based
Settings: 1 μM
Procedure: Development of biologically relevant and predictive cell-based assays for compound screening and toxicity assessment is a major challenge in drug discovery. The focus of this study was to establish high-throughput-compatible cardiotoxicity assays using human-induced pluripotent stem cell (iPSC)-derived cardiomyocytes. To assess the utility of human iPSC-derived cardiomyocytes as an in vitro pro-arrhythmia model, the concentration dependence and responses were evaluated for 28 drugs linked to low, intermediate, and high torsades de pointes (TdP) risk categories. […] This assay allows for the characterization of parameters such as beating frequency, amplitude, peak width, and rise and decay times. […] The iPSC-derived cardiomyocytes generate spontaneous synchronized calcium oscillations. High speed fluorescence imaging with the FLIPR® Penta® System was used to measure the patterns and frequencies of the Ca^2+ oscillations in cardiomyocytes as monitored by changes in intracellular Ca^2+ levels with the EarlyToxTM Cardiotoxicity Kit. […] In addition, assay-ready 384-Well plates with cardiomyocytes1 were obtained from […], Inc. Plates were shipped pre-plated and allowed to recover after arrival for 2 days. […]

**Q.** For `COC(=O)C1=C(C)NC(C)=C(C(=O)OC)C1c1ccccc1[N+](=O)[O-]` [nifedipine], which “frequency of primary peaks relative to control” value (after thirty minutes treatment, control DMSO) is on record?
**A.** significantly higher frequency than control

**Q.** And the “peaks detected in calcium oscillation trace (primary / secondary peaks)” value (recorded two minutes after thirty minutes treatment)?
**A.** Only primary peaks 118 are detected
